# Data taken from the supplement of paper PMC9135407.
# Several values for one entry are separate records, joined by “and”; a condition that tells them apart may be missing. Equal values may be shown once. Where a name gives a salt, the structure may show the parent alone. ± gives the standard deviation of the averaged measurements. The list shows a part of the results. Plates or batches differ in their baseline, so values are only roughly comparable.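 Assay uses culture-activated primary human stellate myofibroblasts; lipid droplet recovery indicates inactivation. Measured: proportion of Hoechst-counted cells over a plate-specific Bodipy cutoff, duplicate wells, DMSO and nortriptyline as per-plate negative and positive controls. A hit scores, control-normalized, above the plate's top-tenth-percentile nortriptyline wells or ranks among its three best wells. Final well concentrations not reported.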
# System: primary human hepatic stellate cells (donor 1)
# Assay: percent Bodipy-positive cells; higher = more lipid droplet accumulation
# Conditions: 48 h
# [1] = library stock concentration: 10 mM
# [2] = library stock concentration: 400 uM
# [3] = library stock concentration: 3.33 mM
# [4] = library stock concentration: 1 mM
compound,measurement,setting,value
CC(=O)N[C@@H](CC(=O)N[C@@H](CCC(=O)O)C(=O)O)C(=O)O [Spaglumic acid],percent Bodipy-positive cells,,10.6 ± 2.3%
same,percent Bodipy-positive cells,[1],13.7 ± 5.8%
c1ccc(C(NCCNC(c2ccccc2)c2ccccc2)c2ccccc2)cc1 [AMN 082 dihydrochloride],percent Bodipy-positive cells,[1],43.2 ± 1.4%
c1ccc(C(NCCNC(c2ccccc2)c2ccccc2)c2ccccc2)cc1,percent Bodipy-positive cells,[1],77.2 ± 1.3%
CN1CCN(c2nc3cc(C(F)(F)F)ccc3n3cccc23)CC1.O=C(O)/C=C\C(=O)O,percent Bodipy-positive cells,[1],97.4 ± 1.5%
CCCC[C@@H](C=O)NC(=O)[C@H](CC(C)C)NC(=O)OCc1ccccc1 [Calpeptin],percent Bodipy-positive cells,[1],16 ± 3.9%
same,percent Bodipy-positive cells,library stock concentration: 13.8 mM,26.1 ± 6%
"Cc1ccc(NC(=O)c2ccc(CN3CCN(C)CC3)cc2)cc1Nc1nc(-c2cccnc2)cs1 [Masitinib (AB1010, Masivet) (10 mM)]",percent Bodipy-positive cells,[1],100%
Cc1ccc(NC(=O)c2ccc(CN3CCN(C)CC3)cc2)cc1Nc1nc(-c2cccnc2)cs1 [Masitinib],percent Bodipy-positive cells,library stock concentration: 80 uM,16.5 ± 2.5%
same,percent Bodipy-positive cells,[2],26.2 ± 1.4%
same,percent Bodipy-positive cells,library stock concentration: 2 mM,23.4 ± 0.83%
"Cc1ccc(NC(=O)c2ccc(CN3CCN(C)CC3)cc2)cc1Nc1nc(-c2cccnc2)cs1 [Masitinib (AB1010, Masivet) (0.4 mM)]",percent Bodipy-positive cells,[2],54.6 ± 1.1%
COc1nc(C)nc(Cl)c1NC1=NCCN1,percent Bodipy-positive cells,[1],13.7 ± 5.2%
COc1nc(C)nc(Cl)c1NC1=NCCN1 [Moxonidine hydrochloride],percent Bodipy-positive cells,[1],25.9% and 6.28%
COc1nc(C)nc(Cl)c1NC1=NCCN1 [Moxonidine],percent Bodipy-positive cells,,8.27 ± 1.3%
same,percent Bodipy-positive cells,[3],7.55 ± 2%
same,percent Bodipy-positive cells,[1],10.2 ± 3.4%
CCn1cc(C(=O)O)c(=O)c2cnc(N3CCNCC3)nc21 [Pipemidic acid],percent Bodipy-positive cells,,9.88 ± 0.17%
same,percent Bodipy-positive cells,[1],27.8 ± 9%
O=C(Nc1cc(C(F)(F)F)ccc1N1CCCCC1)c1ccncc1,percent Bodipy-positive cells,[3],36.4 ± 12%
same,percent Bodipy-positive cells,[1],34.3 ± 9.1%
COc1cc2nc(N3CCN(C(=O)c4ccco4)CC3)nc(N)c2cc1OC [Prazosin HCl],percent Bodipy-positive cells,library stock concentration: 5.2 mM,62.4 ± 6.9%
COc1cc2nc(N3CCN(C(=O)c4ccco4)CC3)nc(N)c2cc1OC [Prazosin hydrochloride],percent Bodipy-positive cells,,79 ± 5%
same,percent Bodipy-positive cells,library stock concentration: 4.8 mM,83.8 ± 11%
same,percent Bodipy-positive cells,[1],73% and 96.1%
COc1cc2nc(N3CCN(C(=O)c4ccco4)CC3)nc(N)c2cc1OC [Prazosin],percent Bodipy-positive cells,[1],92.2 ± 7%
NCCS(=O)(=O)O [Taurine],percent Bodipy-positive cells,[1],23.46 ± 0.098%
same,percent Bodipy-positive cells,library stock concentration: 16 mM,16.7 ± 3.3%
CC(C)OC(=O)CCC/C=C\C[C@@H]1[C@@H](/C=C/C(F)(F)COc2ccccc2)[C@H](O)C[C@@H]1O [Tafluprost],percent Bodipy-positive cells,[4],6.82 ± 3.1%
N#CC(C#N)=C(N)/C(C#N)=C/c1ccc(O)cc1,percent Bodipy-positive cells,[3],8.59 ± 2.7%
N#CC(C#N)=C(N)/C(C#N)=C/c1ccc(O)cc1 [Tyrphostin AG 112],percent Bodipy-positive cells,[1],17.8 ± 6%
CCCCCCCC/C=C\CCCCCCCC(=O)OC[C@@H](O)COP(=O)(O)O [1-Oleoyl Lysophosphatidic Acid],percent Bodipy-positive cells,[4],9.7 ± 3.2%
CCCCCCCC/C=C\CCCCCCCC(=O)OC[C@@H](O)COP(=O)(O)O [1-Oleoyl Lysophosphatidic Acid (sodium salt)],percent Bodipy-positive cells,[4],7.74 ± 2.2%
Cc1nc2c(c(=O)[nH]1)CSCC2,percent Bodipy-positive cells,[1],7.73 ± 1.8%
CCCCCCCC/C=C\CCCCCCCC(=O)N[C@@H](CO)Cc1ccc(O)cc1,percent Bodipy-positive cells,[4],26.5 ± 11%
same,percent Bodipy-positive cells,[1],14.2 ± 2.4%
Oc1c(I)cc(I)c2cccnc12 [Iodoquinol],percent Bodipy-positive cells,library stock concentration: 5 mM,3.76 ± 0.27%
same,percent Bodipy-positive cells,[1],11.4 ± 4.1%
CCO[C@@H]1OC(=O)C[C@@H]1NC(=O)[C@@H]1CCCN1C(=O)[C@@H](NC(=O)c1ccc(N)c(Cl)c1)C(C)(C)C,percent Bodipy-positive cells,[3],8.51 ± 4.5%
same,percent Bodipy-positive cells,[1],17.4 ± 13%
CCN(CC)CCNC(=O)c1cc(S(C)(=O)=O)ccc1OC [Tiapride hydrochloride],percent Bodipy-positive cells,,22 ± 1.7%
CCCCCC=CCC=CCCCCCCCC(=O)OC(CO)CO [2-Linoleoyl Glycerol],percent Bodipy-positive cells,[4],15.2 ± 2.9%
CCCCCC(C)N (stereo not given) [Tuaminoheptane sulfate],percent Bodipy-positive cells,library stock concentration: 9.4 mM,12.3 ± 1.4%
same,percent Bodipy-positive cells,[1],25.8 ± 0.59%
COc1ccc2cc(CCC(C)=O)ccc2c1,percent Bodipy-positive cells,[1],47.9 ± 5.3%
COc1ccc2cc(CCC(C)=O)ccc2c1 [Nabumetone],percent Bodipy-positive cells,,18.1 ± 3.7%
same,percent Bodipy-positive cells,[3],15.9 ± 1.5%
same,percent Bodipy-positive cells,library stock concentration: 8.8 mM,18.4% and 18.1%
same,percent Bodipy-positive cells,[1],46.9% and 40.7%
O=C(O)CCC(=O)OC[C@@H](NC(=O)C(Cl)Cl)[C@H](O)c1ccc([N+](=O)[O-])cc1 [Chloramphenicol hemisuccinate],percent Bodipy-positive cells,library stock concentration: 4.7 mM,2.06 ± 1.1%
same,percent Bodipy-positive cells,[1],8.05 ± 0.84%
Cc1cccc(/C=C/c2ccccc2)n1,percent Bodipy-positive cells,[1],20.4% and 7.16%
CCn1cc(C(=O)O)c(=O)c2ccc(C)nc21,percent Bodipy-positive cells,[1],30.3 ± 9.7%
CCn1cc(C(=O)O)c(=O)c2ccc(C)nc21 [Nalidixic acid sodium],percent Bodipy-positive cells,[1],40 ± 22%
CCn1cc(C(=O)O)c(=O)c2ccc(C)nc21 [Nalidixic acid],percent Bodipy-positive cells,[3],6.19 ± 2.4%
same,percent Bodipy-positive cells,library stock concentration: 8.6 mM,10.8 ± 2.8%
same,percent Bodipy-positive cells,[1],20.9% and 22.9%
COc1ccc(-c2oc3c(CC=C(C)C)c(O[C@@H]4O[C@H](CO)[C@@H](O)[C@H](O)[C@H]4O)cc(O)c3c(=O)c2O[C@@H]2O[C@@H](C)[C@H](O)[C@@H](O)[C@H]2O)cc1 [Icariin],percent Bodipy-positive cells,[3],19.1 ± 7.5%
same,percent Bodipy-positive cells,[1],15.7 ± 3.5%
COc1ccc(-c2oc3c(CC=C(C)C)c(O[C@@H]4O[C@H](CO)[C@@H](O)[C@H](O)[C@H]4O)cc(O)c3c(=O)c2O[C@@H]2O[C@@H](C)[C@H](O)[C@@H](O)[C@H]2O)cc1,percent Bodipy-positive cells,[1],6.12 ± 0.44%

# Random excerpt: two entries already listed, in no set order.
compound,measurement,setting,value
Cc1ccc(NC(=O)c2ccc(CN3CCN(C)CC3)cc2)cc1Nc1nc(-c2cccnc2)cs1 [Masitinib],percent Bodipy-positive cells,library stock concentration: 80 uM,16.5 ± 2.5%
CCn1cc(C(=O)O)c(=O)c2ccc(C)nc21 [Nalidixic acid],percent Bodipy-positive cells,library stock concentration: 8.6 mM,10.8 ± 2.8%

# Another view of some results above:
compound	measurement	setting	value
COc1nc(C)nc(Cl)c1NC1=NCCN1 [Moxonidine]	percent Bodipy-positive cells		8.27 ± 1.3%
COc1ccc2cc(CCC(C)=O)ccc2c1	percent Bodipy-positive cells	[1]	47.9 ± 5.3%
